Results from PubChem BioAssay AID2685 (National Center for Advancing Translational Sciences (NCATS), 2010).
“And” between values parts separate entries of the source, which are not always exact repeats. Equal entries are not always repeated. This is one part of the list. Shown are side measurements of this screen, not its main read-out; they come without a call. Most of these compounds were active or inconclusive in the main read-out, so they are no random draw. The note in brackets gives the kind of curve behind each potency; many fits are weak.

Assay: qHTS Assay for Lipid Storage Modulators in Drosophila S3 Cells;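 on cell number change: cells counted by Cell Tracker Red CMTPX staining in the red channel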
Settings: BODIPY lipid droplet fluorescence, 18-24 h; for cell number change: measured here: cell count max response, cells fed with added oleic acid
Outline: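 Laser-scanning cytometry quantifies lipid droplet accumulation (500–530 nm total intensity; droplet/cell object ratio) in oleic acid-fed (400 uM added) Drosophila S3 cells treated with a concentration series. 20 uM Triacsin C defined 100% inhibition.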

[1] = measured here: cell number channel AC50, cells fed with added oleic acid
[2] = measured here: lipid fluorescence (Fed channel) AC50, cells fed with added oleic acid

Compound | cell number change [%] | AC50 [1] | AC50 [2]
Oc1ccc(-c2cc(-c3ccc(O)cc3)nc(-c3ccccc3)n2)cc1 | -52.4 | 29.1 µM [falling, single point] | 29.1 µM [falling, single point]
COc1ccc(Cc2nc3ccc(C(=O)N4CCOCC4)cc3o2)cc1 | 27.2 | – | 0.058 µM [rising, full curve, poor fit]
C=CCN1C(=O)/C(=C2/Sc3ccc(OC)cc3N2C)SC1=Nc1ccc(OC)cc1 | 17.6 | – | –
CCSc1ncc(C)cc1[N+](=O)[O-] | -39.4 | 6.51 µM [falling, partial curve, poor fit] | –
[O-][n+]1onc2c3cc(-c4ccccc4)nnc3ccc21 | -0.939 | 0.731 µM [falling, single point] | 0.731 µM [falling, single point]
CCOc1ccc2nc(NCCNC(=O)Nc3cccc(C)c3)c(C#N)cc2c1 | -57.5 | 16.4 µM [falling, partial curve] | 18.4 µM [falling, single point]
O=c1oc2ccccc2cc1-c1nnc(NCc2ccco2)s1 | – | 4.11 µM [rising, partial curve, poor fit] | 5.8 µM [rising, partial curve]
Cc1cc(C(F)(F)F)c(C#N)c(N2CCOCC2)n1 | -8.76 | 0.00517 µM [falling, full curve, poor fit] | –
COc1cc(/C=C/C(=O)c2ccc3c(c2)OCO3)cc(OC)c1OC | -1.67 | – | 29.1 µM [rising, single point]
Cc1ccc(SCCNC(=O)c2ccccc2C)cc1 | – | – | 0.731 µM [rising, single point]
CCCN1C2CCCC1CC(NC(=O)c1ccccc1F)C2 (configuration not stated) | -2.86 | 0.651 µM [falling, single point] | –
CCOC(=O)N1CCC2(CC1)C(C(=O)C13CC4CC(CC(C4)C1)C3)C2(C#N)C#N (configuration not stated) | 9.48 | – | 6.51 µM [falling, single point]
Cc1cccc(Nc2ncc3c(n2)CC(c2ccco2)CC3=O)c1 (configuration not stated) | -55.9 | 16.4 µM [falling, single point] | –
NC(=O)C1(N2CCCCC2)CCN(C2CC(=O)N(Cc3ccc(N4CCCC4=O)cc3)C2=O)CC1 (configuration not stated) | -46.9 | 29.1 µM [falling, single point] | –
CCOc1ccc(NC(=S)Nc2ccc(OCC)cc2)cc1 | -3.73 | – | 0.103 µM [falling, full curve]
CC1=CCCC(C)(C)C1/C=C/C(C)=N/NC(=O)c1ccncc1 (configuration not stated) | -1.49 | – | –
O=C(Nc1ccc(F)cc1)c1cc(S(=O)(=O)N2CCCCC2)cs1 | -7.88 | – | 6.51 µM [rising, single point]
CCOC(=O)N1CCN(C(=O)c2ccc(NS(C)(=O)=O)cc2)CC1 | -35.9 | 29.1 µM [falling, single point] | 29.1 µM [falling, single point]
O=C1CC(C(=O)Nc2ccc(Br)cc2)S/C(=N\N=C\c2ccco2)N1 (configuration not stated) | 17.3 | 2.59 µM [rising, single point] | 1.64 µM [falling, partial curve]

Compound | cell number change [%] | AC50 [1] | AC50 [2]
O=C(NCc1ccccc1Cl)c1ccc2nnsc2c1 | 18.5 | – | 1.3 µM [rising, full curve, poor fit]
CCN(CC(=O)Nc1c(F)cccc1F)C(=O)c1cc(S(=O)(=O)N(C)C)ccc1N1CCCC1 | – | – | 0.651 µM [rising, full curve, poor fit]
CCOC(=O)/C(C#N)=C/c1c(N2CCN(c3cccc(Cl)c3)CC2)nc2c(C)cccn2c1=O | -23.6 | – | 6.51 µM [falling, single point]
COc1cc(/C=C2/C(=O)N(c3ccc(Br)cc3)N=C2C)cc(OC)c1OC | 4.17 | – | 29.1 µM [falling, single point]
CC(C)(C)c1ccc(C(=O)NCCCN2CCN(CCCNC(=O)c3ccc(C(C)(C)C)cc3)CC2)cc1 | -76.1 | 29.1 µM [falling, single point] | 18.4 µM [falling, single point]
Cn1c(=O)c(C(=O)COC(=O)c2cc(C(F)(F)F)nc3c(C(F)(F)F)cccc23)c(N)n(CC2CC2)c1=O | 0.312 | 6.51 µM [falling, single point] | 6.51 µM [falling, single point]
COc1cccc(-c2nn(-c3ccc(C)cc3)cc2C(=O)N2CCN(C3CCS(=O)(=O)C3)CC2)c1 (configuration not stated) | -21.3 | – | 0.461 µM [falling, partial curve, poor fit]
COc1ccc2[nH]c(=O)c(COC(=O)c3cccs3)cc2c1 | 49.4 | 18.4 µM [rising, partial curve] | –
COc1cc(OC)cc(-c2sc3ccc(OC)cc3c2C#CC(C)(C)O)c1 | 12 | – | 0.0651 µM [rising, single point]
N#Cc1nc(COc2ccccc2)oc1N1CCN(Cc2ccccc2)CC1 | – | – | 16.4 µM [rising, partial curve]
O=C(Nc1nnc(-c2ccccc2)s1)c1ccccc1O | -35 | 29.1 µM [falling, single point] | 25.9 µM [falling, single point]
CCOC(=O)c1c(NC(=O)CCS(=O)(=O)c2ccccc2)sc2c1CCN(C)C2 | -11.8 | – | 6.51 µM [falling, single point]
CCOc1cc(/C=C/C(=O)OCC(=O)NCCN2C(=O)CSC2=O)ccc1OCC(C)C | -5.71 | – | –
C=CCOc1ccc(CNCc2cccnc2)cc1 | -3.88 | – | –
COc1cc(C(c2c(C)[nH][nH]c2=O)c2c(C)[nH][nH]c2=O)ccc1OCc1ccc([N+](=O)[O-])cc1 | -8.33 | 0.13 µM [falling, full curve, poor fit] | 0.731 µM [falling, full curve]
Cc1ccc(S(=O)(=O)NNC(=S)NC(C)(C)C)cc1 | 5.48 | – | 0.0731 µM [falling, full curve, poor fit]
O=C(CCC(=O)N(CC(=O)NC1CCCCC1)Cc1ccccc1)Nc1nccs1 | 38.5 | 29.1 µM [rising, single point] | –
COc1cc(CC(=O)Nc2ccc3nc(C)sc3c2)cc(OC)c1OC | 49 | 1.84 µM [rising, full curve] | 0.0291 µM [rising, full curve, poor fit]
Cc1cc(C(=O)NCCC2=CCCCC2)no1 | 35.3 | 29.1 µM [rising, single point] | 18.4 µM [falling, single point]

A second format for part of the listing above:
Compound,cell number change [%],AC50 [1],AC50 [2]
COc1cc(C(c2c(C)[nH][nH]c2=O)c2c(C)[nH][nH]c2=O)ccc1OCc1ccc([N+](=O)[O-])cc1,-8.33,"0.13 µM [falling, full curve, poor fit]","0.731 µM [falling, full curve]"
Cc1ccc(S(=O)(=O)NNC(=S)NC(C)(C)C)cc1,5.48,–,"0.0731 µM [falling, full curve, poor fit]"
O=C(CCC(=O)N(CC(=O)NC1CCCCC1)Cc1ccccc1)Nc1nccs1,38.5,"29.1 µM [rising, single point]",–

Later entries:

Compound | cell number change [%] | AC50 [1] | AC50 [2]
C=CCNC(=O)NC(=O)COC(=O)[C@H](C)NS(=O)(=O)c1c(C)c(C)cc(C)c1C | -36.8 | 10.3 µM [falling, partial curve] | 13 µM [falling, partial curve, poor fit]
N=c1n(CC(=O)c2ccc(Br)cc2)c2ccccc2n1Cc1ccccc1 | -43.6 | 3.26 µM [falling, single point] | –
Cc1cc(N2CCOCC2)nc2ccc(NC(=O)CCC(=O)N3CCN(c4ccccc4)CC3)cc12 | 49.2 | 29.1 µM [rising, single point] | –
CC(=O)N1c2ccc(S(=O)(=O)N3CCCC(C(=O)NCc4ccccc4Cl)C3)cc2CC1C (configuration not stated) | -15.8 | – | –
O=C1C(SCCO)=C(SCCO)C(=O)c2ccccc21 | -95.8 | 7.31 µM [falling, partial curve] | 5.17 µM [falling, full curve]
O=C(CCSc1nc(-c2ccco2)cc(C(F)(F)F)n1)NCc1ccccn1 | 21.9 | – | –
CCOC(=O)CC1ON(C)C(=O)N1c1ccc(Cl)cc1Cl (configuration not stated) | -20.1 | – | 20.6 µM [falling, single point]
CS(=O)(=O)N(CC(=O)NC1CCCC1)c1cccc(F)c1 | -2.57 | – | –
COCc1ccc(C(=O)OC(C)C(=O)Nc2c(C)n(C)n(-c3ccccc3)c2=O)cc1 (configuration not stated) | -3.16 | – | 1.3 µM [rising, partial curve]
COc1cc(C(=O)N2CCN=C2c2ccccc2)cc(OC)c1OC | -11.6 | – | 10.3 µM [rising, partial curve, poor fit]
c1ccc(Cc2nc3ccccc3o2)cc1 | 8.73 | – | 0.326 µM [rising, full curve, poor fit]
O=C(COC(=O)c1cc(C(F)(F)F)cc(C(F)(F)F)c1)NCc1ccc(Cl)cc1 | 92.9 | 29.1 µM [rising, single point] | –
COc1ccc(OC)c2[nH]c(C(=O)N3CCC(C(=O)O)CC3)cc12 | 4.84 | – | –
COc1ccc(OC)c(S(=O)(=O)Nc2ccc3c(c2)n(C)c(=O)n3C)c1 | 10.8 | – | 1.16 µM [rising, single point]
Cc1onc(-c2ccccc2)c1C(=O)OCC(=O)N(C)c1c(N)n(Cc2ccccc2)c(=O)[nH]c1=O | – | 2.31 µM [rising, single point] | –
CC(=O)Nc1cccc(NC(=O)c2ccc(Br)cc2)c1 | 51.8 | – | 29.1 µM [rising, single point]
COc1ccc(/C=C/C(=O)Nc2nc(C)c(C(=O)N(C)C)s2)cc1 | 33.7 | 29.1 µM [rising, single point] | 23.1 µM [rising, single point]
CCCc1c(C(=O)NNc2ccc(C)cc2)cnn1-c1ccccc1 | -10.3 | 0.103 µM [falling, partial curve, poor fit] | –
C=CCc1ccccc1OCC(O)CN1CCN(Cc2ccc3c(c2)OCO3)CC1 (configuration not stated) | 125 | 3.26 µM [rising, single point] and 20.6 µM [rising, partial curve] | 5.17 µM [rising, single point] and 18.4 µM [rising, partial curve]
